Assay [1] has as its target Receptor protein tyrosine phosphatase beta/zeta (human (endogenous in HUVEC and U87MG)) (UniProt P23471). Nature of the assay: proximity ligation; in situ PLA on fixed U87MG cells, endogenous proteins; treatments in some panels: CS-E II 100 ng/ml, exogenous PTN 100 ng/ml.
Assay [2] has the same target. Nature of the assay: co-IP; U87MG cells lysed with RIPA buffer; immunoprecipitated for RPTPβ/ζ, VEGF or PTN, Western blot for VEGF or RPTPβ/ζ; IgG as negative control; with or without CS-E or PTN in some panels. (Immunoblotting shows a protein as a band on a membrane.)
Assay [3] shares this target. Nature of the assay: proximity ligation; in situ PLA on fixed HUVEC, endogenous proteins; treatments in some panels: VEGF165 10 ng/ml, siRNA against RPTPβ/ζ, bevacizumab 250 μg/ml, CS-E II 100 ng/ml, exogenous PTN 100 ng/ml.
Assay [4] concerns the target Vascular endothelial growth factor A (endogenous) (human (endogenous in HUVEC and U87MG)) (UniProt P15692). Nature of the assay: co-IP; U87MG cells lysed with RIPA buffer; immunoprecipitated for RPTPβ/ζ, VEGF or PTN, Western blot for VEGF or RPTPβ/ζ; IgG as negative control; with or without CS-E or PTN in some panels.

The chains behind the UniProt entries cited, without tags or fusion partners. Where a name states a change or a piece, a line headed by the entry shows the natural chain unless it says otherwise. Residues count along the entry.
UniProt P23471, residues 25-2315: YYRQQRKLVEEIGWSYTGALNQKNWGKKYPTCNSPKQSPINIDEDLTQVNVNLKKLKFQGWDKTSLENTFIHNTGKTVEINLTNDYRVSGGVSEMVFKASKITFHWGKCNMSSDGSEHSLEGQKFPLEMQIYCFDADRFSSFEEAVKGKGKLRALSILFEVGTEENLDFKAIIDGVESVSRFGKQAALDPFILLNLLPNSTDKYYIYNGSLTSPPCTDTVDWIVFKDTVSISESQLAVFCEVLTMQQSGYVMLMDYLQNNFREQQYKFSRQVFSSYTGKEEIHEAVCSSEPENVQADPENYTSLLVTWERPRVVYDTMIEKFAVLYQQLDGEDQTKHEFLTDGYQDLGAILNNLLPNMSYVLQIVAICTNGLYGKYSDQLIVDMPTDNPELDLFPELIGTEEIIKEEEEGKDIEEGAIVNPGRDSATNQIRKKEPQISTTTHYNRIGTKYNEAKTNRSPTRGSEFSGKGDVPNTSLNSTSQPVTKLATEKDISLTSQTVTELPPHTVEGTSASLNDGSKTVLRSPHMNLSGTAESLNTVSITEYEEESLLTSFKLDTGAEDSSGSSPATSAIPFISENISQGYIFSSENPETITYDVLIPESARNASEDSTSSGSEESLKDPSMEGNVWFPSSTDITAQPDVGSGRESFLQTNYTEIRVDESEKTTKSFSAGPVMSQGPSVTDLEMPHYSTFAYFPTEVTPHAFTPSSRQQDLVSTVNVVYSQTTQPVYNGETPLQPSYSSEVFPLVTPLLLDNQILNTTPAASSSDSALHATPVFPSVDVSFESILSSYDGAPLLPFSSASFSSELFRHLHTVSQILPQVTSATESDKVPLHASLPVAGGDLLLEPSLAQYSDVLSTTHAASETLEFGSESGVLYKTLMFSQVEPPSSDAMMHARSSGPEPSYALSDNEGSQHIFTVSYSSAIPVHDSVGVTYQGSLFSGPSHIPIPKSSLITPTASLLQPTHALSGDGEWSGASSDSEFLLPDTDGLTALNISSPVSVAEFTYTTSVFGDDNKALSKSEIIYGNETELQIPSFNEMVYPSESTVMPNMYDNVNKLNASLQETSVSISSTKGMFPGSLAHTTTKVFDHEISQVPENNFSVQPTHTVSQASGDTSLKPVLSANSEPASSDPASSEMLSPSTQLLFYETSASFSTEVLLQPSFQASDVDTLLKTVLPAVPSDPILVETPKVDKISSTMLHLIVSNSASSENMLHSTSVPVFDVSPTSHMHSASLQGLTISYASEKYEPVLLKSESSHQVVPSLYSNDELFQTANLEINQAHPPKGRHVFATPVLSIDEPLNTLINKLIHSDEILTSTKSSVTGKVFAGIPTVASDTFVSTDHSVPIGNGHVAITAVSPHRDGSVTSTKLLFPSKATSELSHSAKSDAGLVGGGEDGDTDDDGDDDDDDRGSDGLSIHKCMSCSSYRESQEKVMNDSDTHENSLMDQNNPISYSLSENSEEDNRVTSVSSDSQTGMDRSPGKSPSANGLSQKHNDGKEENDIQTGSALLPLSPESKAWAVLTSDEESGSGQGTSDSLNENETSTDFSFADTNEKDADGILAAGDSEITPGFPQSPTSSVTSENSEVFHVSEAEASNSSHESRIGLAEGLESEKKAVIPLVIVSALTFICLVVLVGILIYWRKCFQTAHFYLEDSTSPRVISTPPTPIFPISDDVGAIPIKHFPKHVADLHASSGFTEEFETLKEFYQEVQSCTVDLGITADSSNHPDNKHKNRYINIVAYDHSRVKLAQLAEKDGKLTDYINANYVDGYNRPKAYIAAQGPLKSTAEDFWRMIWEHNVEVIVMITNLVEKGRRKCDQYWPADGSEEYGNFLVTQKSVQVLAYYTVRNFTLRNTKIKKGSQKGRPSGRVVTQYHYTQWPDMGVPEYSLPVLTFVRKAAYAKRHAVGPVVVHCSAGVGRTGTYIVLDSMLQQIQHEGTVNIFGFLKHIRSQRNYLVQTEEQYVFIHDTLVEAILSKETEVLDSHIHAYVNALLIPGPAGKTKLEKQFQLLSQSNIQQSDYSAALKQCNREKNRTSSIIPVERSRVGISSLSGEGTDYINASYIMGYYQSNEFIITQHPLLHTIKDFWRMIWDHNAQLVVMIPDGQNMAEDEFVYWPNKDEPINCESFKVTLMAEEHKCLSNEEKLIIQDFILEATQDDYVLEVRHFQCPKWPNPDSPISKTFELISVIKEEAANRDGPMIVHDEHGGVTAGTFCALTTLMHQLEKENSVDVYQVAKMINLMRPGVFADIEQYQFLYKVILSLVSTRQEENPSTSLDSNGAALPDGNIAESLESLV
UniProt P15692: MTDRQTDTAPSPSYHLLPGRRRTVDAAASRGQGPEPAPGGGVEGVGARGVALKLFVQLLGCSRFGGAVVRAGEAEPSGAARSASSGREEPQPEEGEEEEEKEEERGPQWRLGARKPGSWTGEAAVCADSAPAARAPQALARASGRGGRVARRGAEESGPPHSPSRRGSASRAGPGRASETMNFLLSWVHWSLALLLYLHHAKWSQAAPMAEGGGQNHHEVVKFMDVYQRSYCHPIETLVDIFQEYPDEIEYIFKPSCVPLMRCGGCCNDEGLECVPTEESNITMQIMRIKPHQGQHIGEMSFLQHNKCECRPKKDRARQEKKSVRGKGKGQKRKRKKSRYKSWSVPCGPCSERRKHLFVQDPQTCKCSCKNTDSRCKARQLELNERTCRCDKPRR

These are yes or no findings as the source states them, for the method shown. Binding seen in cells or lysates may run through a third protein. Binding calls can cover weak binding; strength is not graded here.

“Vascular endothelial growth factor A (endogenous) (from UniProt P15692-4) (ligand)”: the binding entry in assay [1], in assay [2] and in assay [3] was “binds” in each case. With “Receptor protein tyrosine phosphatase beta/zeta, long transmembrane isoform (from UniProt P23471-1 25-2315)”, the binding result in assay [4] is “binds”. Still for that read-out and setting: the value for “Receptor protein tyrosine phosphatase beta/zeta, short transmembrane isoform (from UniProt P23471-3)” was “binds”.

For the origin of these results see PMC4323219.
